# Results reported in the supplement of paper PMC9015667.
# Where a name gives a salt, the structure may show the parent alone. This is one part of the list. Repeats are few or missing, and single values can be far off.
# Tested on: UACC62P (parental melanoma line)
# Assay: reduction in cell viability relative to untreated/vehicle; higher = more growth inhibition
# Conditions: 200 nM; 72 h
row,SMILES,reduction in cell viability [%]
1,CNCCCC12CCC(c3ccccc31)c1ccccc12 [Maprotiline hydrochloride],< 0
2,COc1ccc(/C=C\c2cc(OC)c(OC)c(OC)c2)cc1NC(=O)[C@@H](N)CO [Ombrabulin],51.3
3,COc1ccc(-c2nc(N3CCOCC3)c3sc(CN(C)c4ncc(C(=O)NO)cn4)cc3n2)cn1,< 0
4,Cc1cn2cc(C(=O)N(C)CCO)cc(N[C@@H]3CCOc4cccc(C)c43)c2n1,< 0
5,CC1(C)NC(=O)N(c2ccc([N+](=O)[O-])c(C(F)(F)F)c2)C1=O [Nilutamide],< 0
6,COc1ccc(OC)c(-c2nnc3ccc(-c4ccc(OC)c(O[C@@H]5CCOC5)c4)nn23)c1,16.2
7,O=c1ccn([C@@H]2O[C@H](CO)[C@@H](O)[C@H]2O)c(=O)[nH]1 [Uridine],< 0
8,Cc1ccc(C(=O)Nc2cccc(C(F)(F)F)c2)cc1Nc1nc(-c2cccnc2)nc2c1cnn2C,17.2
9,Oc1cc(O)c(Cl)cn1 [Gimeracil],4.19
10,C[C@H]1O[C@@H](O[C@H]2[C@@H](O)C[C@H](O[C@H]3[C@@H](O)C[C@H](O[C@H]4CC[C@@]5(C)[C@H](CC[C@@H]6[C@@H]5C[C@@H](O)[C@]5(C)[C@@H](C7=CC(=O)OC7)CC[C@]65O)C4)O[C@@H]3C)O[C@@H]2C)C[C@H](O)[C@@H]1O [Digoxin],91
11,COc1cc(C(=O)NS(=O)(=O)c2ccccc2C)ccc1Cc1cn(C)c2ccc(NC(=O)OC3CCCC3)cc12 [Zafirlukast],< 0
12,Cn1cnc2c(F)c(Nc3ccc(Br)cc3F)c(C(=O)NOCCO)cc21,59.7
13,O=C(/C=C/c1cccc(S(=O)(=O)Nc2ccccc2)c1)NO [Belinostat],6.08
14,CN(C)c1nc(N(C)C)nc(N(C)C)n1 [Altretamine],< 0
15,COc1ccc2ccc(=O)oc2c1CC=C(C)C [Ostol],< 0
16,CN1CC(=O)N2[C@H](c3ccc4c(c3)OCO4)c3[nH]c4ccccc4c3C[C@@H]2C1=O [Tadalafil],5.36
17,OC(c1cc(C(F)(F)F)nc2c(C(F)(F)F)cccc12)C1CCCCN1 (configuration not stated) [Mefloquine],< 0
18,CN1CCN(c2ccc3nc(-c4c(N)c5c(F)cccc5[nH]c4=O)[nH]c3c2)CC1 [Dovitinib],26.2
19,c1ccc([C@H]2CN3CCSC3=N2)cc1 [L-tetramisol],< 0
20,COc1ncc(-c2ccc3nccc(-c4ccnnc4)c3c2)cc1NS(=O)(=O)c1ccc(F)cc1F,72
21,CNC(=O)c1ccc2cc([C@@]3(O)CCn4cncc43)ccc2c1 [Orteronel],< 0
22,O=c1c(O)c(-c2ccc(O)cc2)oc2cc(O)cc(O)c12 [Kaempferol],< 0
23,Clc1ccc(COC(Cn2ccnc2)c2ccc(Cl)cc2Cl)cc1 (configuration not stated) [Econazole nitrate],< 0

# Tested on: UACC62R (matched melanoma line resistant to BRAF inhibitors)
# Assay: as above
# Conditions: 200 nM; 72 h
row,SMILES,reduction in cell viability [%]
1,O=c1[nH]c(=O)n([C@H]2C[C@H](O)[C@@H](CO)O2)cc1C(F)(F)F [Trifluridine],< 0
2,C[C@@H](Oc1cc(-n2cnc3ccc(CN4CCN(C)CC4)cc32)sc1C(N)=O)c1ccccc1C(F)(F)F,80.6
3,Cc1ccc(S(=O)(=O)N[C@@H](Cc2ccccc2)C(=O)CCl)cc1,< 0
4,Cn1cc(C2=C(c3ccc(Cl)cc3Cl)C(=O)NC2=O)c2ccccc21,< 0
5,CCc1c2c(nc3ccc(O)cc13)-c1cc3c(c(=O)n1C2)COC(=O)[C@]3(O)CC,67.8
6,CCC1(c2ccccc2)C(=O)NCNC1=O [Primidone],< 0
7,O=C1CN2Cc3c(ccc(Cl)c3Cl)N=C2N1 [anagrelide],12.3
8,O=NN(CCCl)C(=O)NC1CCCCC1 [Lomustine],< 0
9,COC(=O)Nc1nc2cc(C(=O)c3ccccc3)ccc2[nH]1 [Mebendazole],80.6
10,O=C(c1ccc(F)c(F)c1Nc1ccc(I)cc1F)N1CC(O)([C@@H]2CCCCN2)C1,43.7
11,NC(=O)c1ccc(I)c([N+](=O)[O-])c1 [Iniparib],< 0
12,CCn1c(=O)c2c(nc(/C=C/c3ccc(OC)c(OC)c3)n2C)n(CC)c1=O [Istradefylline],< 0
13,Cc1ccc2c(=O)c3cccc(CC(=O)O)c3oc2c1C [Vadimezan],< 0
14,Cc1cc(C(C)Nc2ccccc2)c2nc(N3CCOCC3)cc(=O)n2c1 (configuration not stated),< 0
15,O=NN(CCCl)C(=O)NCCCl [Carmustine],< 0
16,NC(=O)[C@@H](CCC(F)(F)F)N(Cc1ccc(-c2ncon2)cc1F)S(=O)(=O)c1ccc(Cl)cc1 [Avagacestat],15.1
17,CNCCCC12CCC(c3ccccc31)c1ccccc12 [Maprotiline hydrochloride],< 0
18,COc1ccc(/C=C\c2cc(OC)c(OC)c(OC)c2)cc1NC(=O)[C@@H](N)CO [Ombrabulin],77
19,COc1ccc(-c2nc(N3CCOCC3)c3sc(CN(C)c4ncc(C(=O)NO)cn4)cc3n2)cn1,< 0
20,Cc1cn2cc(C(=O)N(C)CCO)cc(N[C@@H]3CCOc4cccc(C)c43)c2n1,< 0

row,SMILES,reduction in cell viability [%]
1,CC1(C)NC(=O)N(c2ccc([N+](=O)[O-])c(C(F)(F)F)c2)C1=O [Nilutamide],< 0
2,COc1ccc(OC)c(-c2nnc3ccc(-c4ccc(OC)c(O[C@@H]5CCOC5)c4)nn23)c1,18.6
3,O=c1ccn([C@@H]2O[C@H](CO)[C@@H](O)[C@H]2O)c(=O)[nH]1 [Uridine],< 0
4,Cc1ccc(C(=O)Nc2cccc(C(F)(F)F)c2)cc1Nc1nc(-c2cccnc2)nc2c1cnn2C,< 0
5,Oc1cc(O)c(Cl)cn1 [Gimeracil],< 0
6,C[C@H]1O[C@@H](O[C@H]2[C@@H](O)C[C@H](O[C@H]3[C@@H](O)C[C@H](O[C@H]4CC[C@@]5(C)[C@H](CC[C@@H]6[C@@H]5C[C@@H](O)[C@]5(C)[C@@H](C7=CC(=O)OC7)CC[C@]65O)C4)O[C@@H]3C)O[C@@H]2C)C[C@H](O)[C@@H]1O [Digoxin],89.3
7,COc1cc(C(=O)NS(=O)(=O)c2ccccc2C)ccc1Cc1cn(C)c2ccc(NC(=O)OC3CCCC3)cc12 [Zafirlukast],< 0
8,Cn1cnc2c(F)c(Nc3ccc(Br)cc3F)c(C(=O)NOCCO)cc21,18.5
9,O=C(/C=C/c1cccc(S(=O)(=O)Nc2ccccc2)c1)NO [Belinostat],48.4
10,CN(C)c1nc(N(C)C)nc(N(C)C)n1 [Altretamine],< 0
11,COc1ccc2ccc(=O)oc2c1CC=C(C)C [Ostol],< 0
12,CN1CC(=O)N2[C@H](c3ccc4c(c3)OCO4)c3[nH]c4ccccc4c3C[C@@H]2C1=O [Tadalafil],< 0
13,OC(c1cc(C(F)(F)F)nc2c(C(F)(F)F)cccc12)C1CCCCN1 (configuration not stated) [Mefloquine],< 0
14,CN1CCN(c2ccc3nc(-c4c(N)c5c(F)cccc5[nH]c4=O)[nH]c3c2)CC1 [Dovitinib],23.9
15,c1ccc([C@H]2CN3CCSC3=N2)cc1 [L-tetramisol],< 0
16,COc1ncc(-c2ccc3nccc(-c4ccnnc4)c3c2)cc1NS(=O)(=O)c1ccc(F)cc1F,75.8
17,CNC(=O)c1ccc2cc([C@@]3(O)CCn4cncc43)ccc2c1 [Orteronel],< 0
18,O=c1c(O)c(-c2ccc(O)cc2)oc2cc(O)cc(O)c12 [Kaempferol],< 0
19,Clc1ccc(COC(Cn2ccnc2)c2ccc(Cl)cc2Cl)cc1 (configuration not stated) [Econazole nitrate],< 0
